The nature of the data set: peptide made by a vendor. The note with it: late stage modification step.

In turn, “Ac-CSLAVVLQRRDWENPGVTQLNRLAAHPPFASWRNSEEARTDCPSQQL” returned a step yield of 50%.
